Common to all, as to assay: affinity purification with mass spectrometry; GFP-Trap_A beads on lysates of male gametocytes 6 min post-activation, cross-linked with 1% formaldehyde before lysis; lysis buffer 10 mM Tris-HCl pH 7.5, 150 mM NaCl, 0.5 mM EDTA, 0.5% Nonidet P-40 Substitute; 2 h at 4°C; on-bead trypsin digest, LC-MS/MS; three biological replicates; hits absent from the WT-GFP control
Test [1] concerns the target SRPK1-GFP (serine/arginine-rich protein kinase with C-terminal GFP) (P. berghei).
Test [2] concerns the target MAP2-GFP (mitogen-activated protein kinase-2 with C-terminal GFP) (P. berghei).
The target of test [3] is T1, CDPK4-GFP (calcium-dependent protein kinase-4 with C-terminal GFP) (P. berghei) (UniProt P62345).
T1 sequence: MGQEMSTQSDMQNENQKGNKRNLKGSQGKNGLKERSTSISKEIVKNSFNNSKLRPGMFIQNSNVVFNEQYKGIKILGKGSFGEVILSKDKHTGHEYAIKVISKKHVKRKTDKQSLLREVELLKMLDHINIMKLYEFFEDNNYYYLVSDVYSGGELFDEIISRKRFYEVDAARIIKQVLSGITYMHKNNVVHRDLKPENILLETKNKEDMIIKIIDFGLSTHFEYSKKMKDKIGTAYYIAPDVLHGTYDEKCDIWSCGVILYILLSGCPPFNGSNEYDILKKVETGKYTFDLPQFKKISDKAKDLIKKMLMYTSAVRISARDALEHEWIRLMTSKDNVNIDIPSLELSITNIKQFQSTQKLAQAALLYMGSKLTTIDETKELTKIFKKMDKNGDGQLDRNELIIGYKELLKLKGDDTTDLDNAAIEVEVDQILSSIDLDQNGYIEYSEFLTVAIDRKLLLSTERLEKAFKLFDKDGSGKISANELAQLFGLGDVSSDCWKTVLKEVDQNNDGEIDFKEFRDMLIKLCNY

The chains behind the UniProt entries cited, without tags or fusion partners. Where a name states a change or a piece, a line headed by the entry shows the natural chain unless it says otherwise.
UniProt A0A509APL0: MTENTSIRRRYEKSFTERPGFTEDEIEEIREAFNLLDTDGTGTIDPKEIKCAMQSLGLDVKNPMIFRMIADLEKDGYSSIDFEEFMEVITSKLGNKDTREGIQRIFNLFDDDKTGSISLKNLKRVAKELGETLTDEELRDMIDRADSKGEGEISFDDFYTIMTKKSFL
UniProt Q8WT39: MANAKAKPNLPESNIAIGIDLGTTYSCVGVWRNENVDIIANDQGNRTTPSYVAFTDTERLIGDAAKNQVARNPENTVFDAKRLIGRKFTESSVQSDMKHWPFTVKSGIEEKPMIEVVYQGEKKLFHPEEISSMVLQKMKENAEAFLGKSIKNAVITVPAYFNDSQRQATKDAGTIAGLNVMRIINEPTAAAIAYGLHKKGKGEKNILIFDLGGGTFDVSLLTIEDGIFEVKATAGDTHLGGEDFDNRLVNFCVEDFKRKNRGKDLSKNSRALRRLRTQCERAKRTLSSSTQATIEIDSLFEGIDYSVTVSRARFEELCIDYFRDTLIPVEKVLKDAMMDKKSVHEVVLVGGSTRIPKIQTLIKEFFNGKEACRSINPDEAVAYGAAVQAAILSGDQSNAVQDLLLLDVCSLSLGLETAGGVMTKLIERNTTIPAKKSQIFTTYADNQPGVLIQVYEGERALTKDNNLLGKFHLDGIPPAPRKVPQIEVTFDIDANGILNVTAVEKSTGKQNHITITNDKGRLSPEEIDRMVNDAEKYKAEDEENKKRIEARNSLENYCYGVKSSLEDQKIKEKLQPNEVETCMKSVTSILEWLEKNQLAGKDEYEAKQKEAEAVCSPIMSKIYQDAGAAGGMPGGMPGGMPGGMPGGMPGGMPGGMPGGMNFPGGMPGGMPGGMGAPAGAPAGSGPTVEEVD
UniProt A0A509AVN2: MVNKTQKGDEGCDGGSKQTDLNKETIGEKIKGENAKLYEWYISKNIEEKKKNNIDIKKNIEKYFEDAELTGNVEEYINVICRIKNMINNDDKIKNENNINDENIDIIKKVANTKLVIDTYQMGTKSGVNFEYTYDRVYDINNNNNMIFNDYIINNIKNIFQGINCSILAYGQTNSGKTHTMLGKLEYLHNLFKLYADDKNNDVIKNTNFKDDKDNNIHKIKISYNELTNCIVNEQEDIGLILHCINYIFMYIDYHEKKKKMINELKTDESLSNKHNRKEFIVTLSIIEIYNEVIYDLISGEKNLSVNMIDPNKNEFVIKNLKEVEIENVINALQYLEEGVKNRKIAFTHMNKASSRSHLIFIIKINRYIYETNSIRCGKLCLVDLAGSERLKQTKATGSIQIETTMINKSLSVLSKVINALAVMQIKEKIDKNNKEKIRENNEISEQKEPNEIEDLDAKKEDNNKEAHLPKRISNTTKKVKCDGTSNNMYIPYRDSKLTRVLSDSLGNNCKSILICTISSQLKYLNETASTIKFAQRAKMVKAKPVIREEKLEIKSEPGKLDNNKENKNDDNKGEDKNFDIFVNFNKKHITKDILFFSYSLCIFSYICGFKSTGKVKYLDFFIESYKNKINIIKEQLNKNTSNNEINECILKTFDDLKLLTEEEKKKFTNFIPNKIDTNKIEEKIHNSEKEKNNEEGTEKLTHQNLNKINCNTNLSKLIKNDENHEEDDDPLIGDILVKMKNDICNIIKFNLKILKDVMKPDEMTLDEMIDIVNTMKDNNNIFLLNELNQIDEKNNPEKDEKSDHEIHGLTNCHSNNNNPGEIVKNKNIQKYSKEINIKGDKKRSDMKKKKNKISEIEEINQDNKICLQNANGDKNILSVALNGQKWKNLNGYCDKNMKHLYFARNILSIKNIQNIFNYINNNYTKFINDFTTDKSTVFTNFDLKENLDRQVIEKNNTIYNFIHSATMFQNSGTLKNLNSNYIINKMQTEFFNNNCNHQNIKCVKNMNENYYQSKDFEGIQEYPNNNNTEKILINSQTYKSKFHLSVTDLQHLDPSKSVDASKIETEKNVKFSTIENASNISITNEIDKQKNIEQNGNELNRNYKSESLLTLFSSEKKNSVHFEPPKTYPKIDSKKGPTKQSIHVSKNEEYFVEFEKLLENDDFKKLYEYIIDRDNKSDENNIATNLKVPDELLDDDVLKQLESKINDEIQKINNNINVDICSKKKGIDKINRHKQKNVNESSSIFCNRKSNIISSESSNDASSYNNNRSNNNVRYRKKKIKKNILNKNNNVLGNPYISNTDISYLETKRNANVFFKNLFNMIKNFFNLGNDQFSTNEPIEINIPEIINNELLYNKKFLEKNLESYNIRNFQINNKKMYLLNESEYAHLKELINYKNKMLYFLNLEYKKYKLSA
UniProt A0A509AIK1: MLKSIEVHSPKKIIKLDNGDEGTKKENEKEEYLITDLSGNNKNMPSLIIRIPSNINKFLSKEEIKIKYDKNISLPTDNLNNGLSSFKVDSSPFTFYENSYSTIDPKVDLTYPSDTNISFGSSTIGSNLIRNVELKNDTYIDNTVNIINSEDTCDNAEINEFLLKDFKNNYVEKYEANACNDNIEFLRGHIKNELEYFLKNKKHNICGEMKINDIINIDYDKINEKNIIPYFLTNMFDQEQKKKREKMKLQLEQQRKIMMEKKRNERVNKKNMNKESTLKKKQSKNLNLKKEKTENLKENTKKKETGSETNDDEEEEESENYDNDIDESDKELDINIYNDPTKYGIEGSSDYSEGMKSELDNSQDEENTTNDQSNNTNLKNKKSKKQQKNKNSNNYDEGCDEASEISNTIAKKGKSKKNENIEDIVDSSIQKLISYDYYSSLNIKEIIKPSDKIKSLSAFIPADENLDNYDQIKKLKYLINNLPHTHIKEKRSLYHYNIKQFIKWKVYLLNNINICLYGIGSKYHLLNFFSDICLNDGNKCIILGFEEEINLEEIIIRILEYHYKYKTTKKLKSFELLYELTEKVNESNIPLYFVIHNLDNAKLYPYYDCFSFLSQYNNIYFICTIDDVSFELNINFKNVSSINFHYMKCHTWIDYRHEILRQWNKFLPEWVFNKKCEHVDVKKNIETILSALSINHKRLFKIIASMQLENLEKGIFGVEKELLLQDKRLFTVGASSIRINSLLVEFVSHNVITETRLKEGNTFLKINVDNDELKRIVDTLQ
UniProt A0A509ADH7: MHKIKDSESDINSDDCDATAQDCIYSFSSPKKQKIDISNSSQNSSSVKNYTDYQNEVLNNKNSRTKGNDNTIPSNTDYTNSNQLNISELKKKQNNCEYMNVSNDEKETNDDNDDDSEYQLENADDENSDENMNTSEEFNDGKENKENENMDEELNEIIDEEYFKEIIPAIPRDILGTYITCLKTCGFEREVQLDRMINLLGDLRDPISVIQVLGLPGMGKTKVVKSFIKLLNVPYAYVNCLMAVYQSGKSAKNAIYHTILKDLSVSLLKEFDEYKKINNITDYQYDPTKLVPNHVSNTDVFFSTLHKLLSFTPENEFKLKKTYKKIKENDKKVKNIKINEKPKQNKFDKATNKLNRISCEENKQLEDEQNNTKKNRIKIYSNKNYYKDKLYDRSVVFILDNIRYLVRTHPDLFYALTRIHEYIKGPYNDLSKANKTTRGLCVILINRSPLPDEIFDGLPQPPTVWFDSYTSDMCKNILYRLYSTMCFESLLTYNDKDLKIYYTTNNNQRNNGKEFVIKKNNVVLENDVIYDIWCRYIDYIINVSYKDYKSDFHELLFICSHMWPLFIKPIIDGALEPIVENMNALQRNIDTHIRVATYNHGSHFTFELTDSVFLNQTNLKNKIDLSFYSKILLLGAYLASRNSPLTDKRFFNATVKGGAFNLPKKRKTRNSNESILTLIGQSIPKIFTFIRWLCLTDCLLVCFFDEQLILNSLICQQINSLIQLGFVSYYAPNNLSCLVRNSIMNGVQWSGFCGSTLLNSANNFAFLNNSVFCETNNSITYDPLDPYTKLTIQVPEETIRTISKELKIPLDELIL
UniProt A0A509AJ02: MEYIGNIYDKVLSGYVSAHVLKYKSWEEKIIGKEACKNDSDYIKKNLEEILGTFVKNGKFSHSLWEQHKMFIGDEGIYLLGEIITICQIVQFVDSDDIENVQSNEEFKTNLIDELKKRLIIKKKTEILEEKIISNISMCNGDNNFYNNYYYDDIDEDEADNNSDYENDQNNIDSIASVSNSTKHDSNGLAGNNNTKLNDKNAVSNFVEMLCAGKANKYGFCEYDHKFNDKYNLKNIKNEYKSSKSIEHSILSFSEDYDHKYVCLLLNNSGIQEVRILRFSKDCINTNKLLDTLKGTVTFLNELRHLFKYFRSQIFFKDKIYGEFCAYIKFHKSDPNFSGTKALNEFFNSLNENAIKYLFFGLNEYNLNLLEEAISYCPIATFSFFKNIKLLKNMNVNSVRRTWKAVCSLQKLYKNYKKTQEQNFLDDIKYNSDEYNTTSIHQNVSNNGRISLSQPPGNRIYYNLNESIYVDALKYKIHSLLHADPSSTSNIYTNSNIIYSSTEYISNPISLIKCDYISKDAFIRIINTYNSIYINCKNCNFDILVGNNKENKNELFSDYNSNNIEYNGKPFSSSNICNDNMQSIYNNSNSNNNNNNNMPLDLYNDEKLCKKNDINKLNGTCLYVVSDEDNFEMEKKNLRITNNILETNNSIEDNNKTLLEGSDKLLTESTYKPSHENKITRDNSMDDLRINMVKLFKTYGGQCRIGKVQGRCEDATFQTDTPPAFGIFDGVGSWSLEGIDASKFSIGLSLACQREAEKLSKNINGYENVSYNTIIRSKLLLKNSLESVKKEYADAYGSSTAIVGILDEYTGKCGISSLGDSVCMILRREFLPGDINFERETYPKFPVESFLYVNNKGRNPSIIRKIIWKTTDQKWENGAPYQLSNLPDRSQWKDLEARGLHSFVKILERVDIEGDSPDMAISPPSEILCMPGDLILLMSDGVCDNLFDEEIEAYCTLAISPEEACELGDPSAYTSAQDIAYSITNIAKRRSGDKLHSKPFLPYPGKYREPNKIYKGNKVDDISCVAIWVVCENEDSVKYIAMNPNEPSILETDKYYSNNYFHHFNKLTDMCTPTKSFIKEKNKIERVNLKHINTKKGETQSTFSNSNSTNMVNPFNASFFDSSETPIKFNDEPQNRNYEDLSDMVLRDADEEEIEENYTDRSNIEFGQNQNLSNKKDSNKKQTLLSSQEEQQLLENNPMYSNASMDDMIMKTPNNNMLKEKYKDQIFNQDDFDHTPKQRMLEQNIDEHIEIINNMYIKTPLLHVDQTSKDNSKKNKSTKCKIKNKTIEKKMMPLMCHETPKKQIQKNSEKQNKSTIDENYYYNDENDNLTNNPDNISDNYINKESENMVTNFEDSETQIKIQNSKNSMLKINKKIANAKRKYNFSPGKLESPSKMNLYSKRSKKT
UniProt A0A509ADR3: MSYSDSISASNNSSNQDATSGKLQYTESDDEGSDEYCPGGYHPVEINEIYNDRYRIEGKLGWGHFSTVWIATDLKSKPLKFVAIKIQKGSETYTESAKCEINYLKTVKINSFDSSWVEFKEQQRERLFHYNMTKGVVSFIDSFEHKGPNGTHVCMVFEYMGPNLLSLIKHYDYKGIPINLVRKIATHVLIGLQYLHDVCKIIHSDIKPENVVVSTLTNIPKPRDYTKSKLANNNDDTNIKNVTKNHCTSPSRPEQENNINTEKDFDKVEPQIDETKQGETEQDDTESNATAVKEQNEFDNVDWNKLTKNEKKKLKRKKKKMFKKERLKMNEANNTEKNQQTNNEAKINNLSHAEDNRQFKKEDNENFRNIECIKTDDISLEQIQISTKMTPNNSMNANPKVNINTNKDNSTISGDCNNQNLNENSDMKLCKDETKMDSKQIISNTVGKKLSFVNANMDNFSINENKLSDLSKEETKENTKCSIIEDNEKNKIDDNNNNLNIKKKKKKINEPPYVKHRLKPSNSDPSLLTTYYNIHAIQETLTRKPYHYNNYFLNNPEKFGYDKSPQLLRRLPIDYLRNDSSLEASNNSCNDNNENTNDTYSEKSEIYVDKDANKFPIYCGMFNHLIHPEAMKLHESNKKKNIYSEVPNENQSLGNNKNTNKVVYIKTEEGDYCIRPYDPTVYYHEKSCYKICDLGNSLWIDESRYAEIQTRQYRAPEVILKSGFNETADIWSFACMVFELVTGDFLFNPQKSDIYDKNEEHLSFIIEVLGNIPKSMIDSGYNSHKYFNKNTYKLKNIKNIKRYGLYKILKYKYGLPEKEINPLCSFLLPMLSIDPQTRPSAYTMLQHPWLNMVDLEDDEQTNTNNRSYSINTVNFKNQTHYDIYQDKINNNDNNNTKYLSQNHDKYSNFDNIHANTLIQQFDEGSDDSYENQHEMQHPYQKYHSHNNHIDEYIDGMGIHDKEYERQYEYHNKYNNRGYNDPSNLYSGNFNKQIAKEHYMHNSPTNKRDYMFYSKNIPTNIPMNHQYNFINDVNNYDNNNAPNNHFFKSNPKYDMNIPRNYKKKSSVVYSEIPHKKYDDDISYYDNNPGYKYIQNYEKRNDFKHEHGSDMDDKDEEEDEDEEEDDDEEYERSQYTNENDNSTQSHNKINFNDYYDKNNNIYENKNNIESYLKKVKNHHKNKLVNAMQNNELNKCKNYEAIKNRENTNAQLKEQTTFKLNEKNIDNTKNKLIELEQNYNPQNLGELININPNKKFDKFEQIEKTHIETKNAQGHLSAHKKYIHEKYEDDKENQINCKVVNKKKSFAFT

For 29 substances, binding results are on record in paper PMC11933671.

No constants are given. Whether binding was seen depends on the method and setting. In cells and extracts the contact can be indirect. Here binding means that the protein was enriched with, or labelled near, the bait; the list need not be complete. For part of these data: A no says only that the protein was not detected with the bait. For part of these data: Sequences can lack the tags named with a protein.

Turning to “Armadillo repeat protein PF16 (from UniProt A0A509AJN7)”, the binding result in test [1] and in test [2] was “binds” in each case.
For “Centrin-2, putative (from UniProt A0A509APL0)”, in test [1], the binding result was “binds”.
Consider “DNA replication licensing factor MCM2, putative (from UniProt A0A509AJY2)”, for which the binding entry in test [1] was “binds”; in test [3], “no binding”.
As to “DNA replication licensing factor MCM3, putative (from UniProt A0A509ANU0)”, the values for the binding entry in test [2] and in test [3] were “binds” and “no binding”, respectively.
Take “DNA replication licensing factor MCM4, putative (from UniProt A0A509AQA8)”: the figures for the binding result in test [1], in test [2] and in test [3] were “binds”, “binds” and “no binding”, respectively.
Take “DNA replication licensing factor MCM5, putative (from UniProt A0A509AH12)”: the binding entry in test [2] is listed as “binds”; in test [3], “no binding”.
The corresponding values for “DNA replication licensing factor MCM6, putative (from UniProt A0A509AKY6)” are “binds” and “no binding”.
On to “DNA replication licensing factor MCM7, putative (from UniProt A0A509AJ17)”, for which the figures for the binding result in test [1], in test [2] and in test [3] were “binds”, “binds” and “no binding”, respectively.
In the case of “Eukaryotic translation initiation factor 3 subunit E, putative (from UniProt A0A509ANV0)”, the binding entry in test [3] is “binds”.
As for “Eukaryotic translation initiation factor 3 subunit G, putative (from UniProt A0A509AMU8)”, the binding result in test [1] is given as “binds”.
On the same count and under the same terms, under “Eukaryotic translation initiation factor 3 subunit I, putative (from UniProt A0A509AJ64)” stands “binds”.
On the same count and under the same terms, the value for “Heat shock protein 70 (from UniProt Q8WT39 1-692)” was “binds”.
Turning to “Kinesin-8B, putative (from UniProt A0A509AB64)”, the binding result in test [2] is recorded as “binds”.
For “Kinesin-13, putative (from UniProt A0A509AU53)”, the binding result in test [2] and in test [3] was “binds” throughout.
Consider “Kinesin-15, putative (from UniProt A0A509AVN2)”, for which the binding result in test [2] is “binds”.
“ORC3 domain-containing protein, putative (from UniProt A0A509AGM7)”: in test [3], the binding entry was “binds”.
As to “Origin recognition complex subunit 1, putative (from UniProt A0A509AH43)”, the binding result in test [3] is given as “binds”.
Same read-out and setting: under “Origin recognition complex subunit 2, putative (from UniProt A0A509AIK1)” stands “binds”.
In the case of “Origin recognition complex subunit 4, putative (from UniProt A0A509ASS0)”, in test [3], the binding result was “binds”.
For “Origin recognition complex subunit 5, putative (from UniProt A0A509ADH7)”, the binding result in test [2] and in test [3] was “binds” each time.
With “Protein phosphatase PPM11, putative (from UniProt A0A509AJ02) (enzyme)”, the binding entry in test [2] and in test [3] was “binds” in each case.
For “Serine/threonine protein kinase, putative (SRPK1) (from UniProt A0A509ADR3) (enzyme)”, the binding entry in test [3] is “binds”.
Same read-out and setting: under “Serine/threonine protein phosphatase 5 (from UniProt A0A509AMH5) (enzyme)” stands “binds”.
On to “Structural maintenance of chromosomes protein 1, putative (from UniProt A0A509APU6)”, for which the binding entry in test [1] and in test [2] was “binds” in each case.
Consider “Structural maintenance of chromosomes protein 2 (from UniProt A0A509AU41)”, for which the binding result in test [2] and in test [3] was “binds” in each case.
Consider “Structural maintenance of chromosomes protein 3, putative (from UniProt A0A509AJX0)”, for which the binding entry in test [1] and in test [2] was “binds” throughout.
With “Structural maintenance of chromosomes protein 4 (from UniProt A0A509ALR5)”, the binding entry in test [2] and in test [3] was “binds” throughout.
For the substance “catalytic subunit of DNA polymerase alpha (P. berghei (endogenous in gametocytes)) (enzyme)”, in test [3], the binding entry is “binds”.
With “catalytic subunit of DNA polymerase epsilon (P. berghei (endogenous in gametocytes)) (enzyme)”, the binding result in test [3] is “binds”.
